Assay results from paper PMC7549910.
These are yes or no findings as the source states them, for the method shown. Some binding calls cover weakened binding; strength is not graded here.

Protein sequences, listed by entry. Tags and fused reporters are not part of them. Residues count along the entry.
UniProt P0C0J7, residues 28-416: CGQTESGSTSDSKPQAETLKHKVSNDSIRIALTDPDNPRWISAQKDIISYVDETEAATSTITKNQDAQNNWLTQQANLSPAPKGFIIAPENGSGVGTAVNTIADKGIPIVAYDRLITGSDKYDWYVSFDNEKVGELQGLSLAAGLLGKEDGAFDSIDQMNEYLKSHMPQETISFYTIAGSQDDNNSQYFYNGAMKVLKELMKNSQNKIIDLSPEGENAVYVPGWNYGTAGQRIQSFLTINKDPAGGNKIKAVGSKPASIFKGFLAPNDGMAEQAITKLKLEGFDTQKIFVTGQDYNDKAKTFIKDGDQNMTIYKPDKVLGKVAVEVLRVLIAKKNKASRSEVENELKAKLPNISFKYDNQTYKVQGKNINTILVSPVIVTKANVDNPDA
UniProt Q8KQQ9: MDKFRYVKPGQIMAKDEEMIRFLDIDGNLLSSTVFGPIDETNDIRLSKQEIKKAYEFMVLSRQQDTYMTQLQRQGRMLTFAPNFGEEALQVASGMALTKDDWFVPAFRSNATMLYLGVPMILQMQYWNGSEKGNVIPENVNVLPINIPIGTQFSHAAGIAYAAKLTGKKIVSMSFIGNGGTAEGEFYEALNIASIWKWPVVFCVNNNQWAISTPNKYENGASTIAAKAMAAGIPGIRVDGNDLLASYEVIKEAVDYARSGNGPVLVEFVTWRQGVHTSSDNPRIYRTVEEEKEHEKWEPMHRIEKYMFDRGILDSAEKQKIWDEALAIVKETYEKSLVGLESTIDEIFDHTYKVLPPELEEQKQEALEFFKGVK
UniProt P08603, residues 19-1231: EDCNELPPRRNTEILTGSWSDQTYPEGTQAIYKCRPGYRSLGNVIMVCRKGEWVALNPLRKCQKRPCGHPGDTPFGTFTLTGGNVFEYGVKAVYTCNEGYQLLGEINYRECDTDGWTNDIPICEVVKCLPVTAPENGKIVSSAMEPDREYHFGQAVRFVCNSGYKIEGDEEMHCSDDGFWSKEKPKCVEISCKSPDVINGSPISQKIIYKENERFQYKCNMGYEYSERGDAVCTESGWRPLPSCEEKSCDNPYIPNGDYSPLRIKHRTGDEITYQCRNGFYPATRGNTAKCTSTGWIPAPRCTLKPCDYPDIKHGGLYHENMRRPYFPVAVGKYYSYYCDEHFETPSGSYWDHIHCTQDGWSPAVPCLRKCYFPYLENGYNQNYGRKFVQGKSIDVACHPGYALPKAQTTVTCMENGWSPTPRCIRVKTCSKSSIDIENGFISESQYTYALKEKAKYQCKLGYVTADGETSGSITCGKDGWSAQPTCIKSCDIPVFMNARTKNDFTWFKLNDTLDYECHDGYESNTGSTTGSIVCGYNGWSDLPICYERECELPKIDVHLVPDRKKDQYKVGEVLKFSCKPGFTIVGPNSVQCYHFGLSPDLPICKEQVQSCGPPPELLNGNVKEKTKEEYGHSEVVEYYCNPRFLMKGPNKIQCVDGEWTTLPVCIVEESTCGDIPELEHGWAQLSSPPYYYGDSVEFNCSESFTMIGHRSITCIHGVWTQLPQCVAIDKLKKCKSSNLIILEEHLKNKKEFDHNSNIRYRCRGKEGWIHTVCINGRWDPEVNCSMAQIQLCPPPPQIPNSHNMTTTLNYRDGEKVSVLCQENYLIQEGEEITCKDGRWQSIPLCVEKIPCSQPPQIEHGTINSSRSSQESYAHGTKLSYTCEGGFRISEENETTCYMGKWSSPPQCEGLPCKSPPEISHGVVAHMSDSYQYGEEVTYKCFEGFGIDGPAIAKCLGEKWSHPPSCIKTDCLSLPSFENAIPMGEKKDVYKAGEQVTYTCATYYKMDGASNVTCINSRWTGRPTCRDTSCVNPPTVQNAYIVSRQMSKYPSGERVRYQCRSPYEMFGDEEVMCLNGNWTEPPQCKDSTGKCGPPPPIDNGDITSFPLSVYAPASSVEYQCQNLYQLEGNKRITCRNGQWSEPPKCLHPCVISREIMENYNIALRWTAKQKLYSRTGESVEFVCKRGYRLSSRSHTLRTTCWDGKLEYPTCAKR

Tests used:
[1] = target: 46 kDa surface antigen (P46) of M. hyopneumoniae (M. hyopneumoniae (endogenous in strain 168)) (UniProt P0C0J7); test: far-Western, overlay or dot blot; surface (Triton X-114) proteins of M. hyopneumoniae strain 168 resolved by 2-DE and transferred to PVDF; 10 ug/mL factor H in TBST overnight at 4°C; rabbit anti-factor H and HRP anti-rabbit, DAB; reactive spots identified by MALDI-TOF-MS; only the binder purified
[2] = target: pyruvate dehydrogenase (acetyl-transferring) E1 component subunit alpha (PdhA) of M. hyopneumoniae (M. hyopneumoniae (endogenous in strain 168)) (UniProt Q8KQQ9); test: as above

## human factor H (from UniProt P08603 19-1231)
[1]
  binding: binds
[2]
  binding: binds
